Experimental data: PubChem BioAssay AID1053209 (Peter MacCallum Cancer Centre, 2014)
Here is one part, drawn at random, of about 1,580 reagents tested. 207 of them (13%) count as active. 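Rows are single siRNAs; four siRNAs per gene were tested, a gene counting as confirmed only when at least two agree.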 Unmarked entries are inactive. Not all columns of the deposit are shown.

- Screen: 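Follow-up of single siRNAs that strengthen doxorubicin killing in osteosarcoma cells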 (follow-up of hits)
- System: mouse primary osteosarcoma cells
- Reagent: single siRNA against mouse genes, 25 nM (text also states 40 nM)
- Time to read-out: about 120 h (48 h before drug, then 72 h with drug)
- Challenge: doxorubicin 100 nM (about IC30-40), added 48 h after transfection, for 72 h
- Measured: 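Viability measured by ATP luminescence with and without doxorubicin, each replicate scaled to non-targeting siRNA NT1, averaged over two replicates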
- Direction: viability with doxorubicin, vs NT1: higher = more viable cells under doxorubicin; viability without drug, vs NT1: higher = more viable cells without drug
- Rule for the call: 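Counted as active (class LC dox) if viability falls to 0.7 of NT1 or below under doxorubicin but stays within 0.7 to 1.1 without drug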

Which result is listed for Med15 [SID152271655]?
combined effect class: normal viability with and without drug; viability with doxorubicin, vs NT1: 0.9; viability without drug, vs NT1: 1.04

What is on record for Med15 [SID152280760]?
combined effect class: normal viability with and without drug; viability with doxorubicin, vs NT1: 0.82; viability without drug, vs NT1: 1.02

What is on record for Med15 [SID152309878]?
combined effect class: normal viability with and without drug; viability with doxorubicin, vs NT1: 1.04; viability without drug, vs NT1: 1.06

What is on record for Med15 [SID152312605]?
combined effect class: normal viability with and without drug; viability with doxorubicin, vs NT1: 0.82; viability without drug, vs NT1: 0.91

With Arcn1 [SID152269232], what was measured?
combined effect class: low viability with and without drug; viability with doxorubicin, vs NT1: 0.5; viability without drug, vs NT1: 0.68

What did the screen give for Arcn1 [SID152292612]?
combined effect class: low viability only with doxorubicin; normal without drug (active); viability with doxorubicin, vs NT1: 0.24; viability without drug, vs NT1: 0.78

Which result is listed for Arcn1 [SID152302821]?
combined effect class: low viability with and without drug; viability with doxorubicin, vs NT1: 0.06; viability without drug, vs NT1: 0.3

With Arcn1 [SID152314546], how do the results read?
combined effect class: low viability with and without drug; viability with doxorubicin, vs NT1: 0.18; viability without drug, vs NT1: 0.46

With Rassf2 [SID152290270], what does the deposit list?
combined effect class: normal viability with and without drug; viability with doxorubicin, vs NT1: 0.98; viability without drug, vs NT1: 1.05

Which result is listed for Rassf2 [SID152291130]?
combined effect class: normal viability with and without drug; viability with doxorubicin, vs NT1: 0.92; viability without drug, vs NT1: 0.98

With Rassf2 [SID152292791], what does the deposit list?
combined effect class: normal viability with and without drug; viability with doxorubicin, vs NT1: 0.82; viability without drug, vs NT1: 0.94

How did the screen score Rassf2 [SID152304243]?
combined effect class: normal viability with and without drug; viability with doxorubicin, vs NT1: 1.07; viability without drug, vs NT1: 1.02

Which result is listed for Coq3 [SID152260223]?
combined effect class: high viability only with doxorubicin; viability with doxorubicin, vs NT1: 1.1; viability without drug, vs NT1: 1.09

With Coq3 [SID152264555], what was measured?
combined effect class: high viability only with doxorubicin; viability with doxorubicin, vs NT1: 1.1; viability without drug, vs NT1: 1

How did the screen score Coq3 [SID152279738]?
combined effect class: normal viability with and without drug; viability with doxorubicin, vs NT1: 0.8; viability without drug, vs NT1: 0.83

With Coq3 [SID152329348], what does the deposit list?
combined effect class: normal viability with and without drug; viability with doxorubicin, vs NT1: 0.79; viability without drug, vs NT1: 0.86
